Reference: publication doi:10.1101/2022.06.26.497646
Results are given in words; binding and its absence hold for the method and conditions named. Some results given as binding are weak or reduced against the parent protein; the word gives no strength.

Biological target: T1, COX3b (Tetrahymena thermophila (endogenous)) (UniProt Q950Y6)
T1 sequence: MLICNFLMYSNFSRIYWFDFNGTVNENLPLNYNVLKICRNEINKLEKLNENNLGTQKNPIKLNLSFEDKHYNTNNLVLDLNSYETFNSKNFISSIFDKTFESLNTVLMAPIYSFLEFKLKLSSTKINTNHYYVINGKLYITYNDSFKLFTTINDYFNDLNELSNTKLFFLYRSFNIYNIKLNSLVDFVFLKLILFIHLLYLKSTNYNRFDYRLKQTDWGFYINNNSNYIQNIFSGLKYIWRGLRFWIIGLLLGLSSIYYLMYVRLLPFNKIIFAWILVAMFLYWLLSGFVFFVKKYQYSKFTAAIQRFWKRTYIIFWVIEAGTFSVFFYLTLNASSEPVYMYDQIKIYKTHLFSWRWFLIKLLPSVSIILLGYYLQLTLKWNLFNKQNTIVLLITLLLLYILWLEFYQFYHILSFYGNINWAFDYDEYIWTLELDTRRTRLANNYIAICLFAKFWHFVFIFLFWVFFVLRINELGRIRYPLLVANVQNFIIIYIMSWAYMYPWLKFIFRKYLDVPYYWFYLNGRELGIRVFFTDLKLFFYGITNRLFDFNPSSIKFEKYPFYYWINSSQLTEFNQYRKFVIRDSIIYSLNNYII
Experiment: cryo-EM structure

binding: binds
B1: COX3a (protein, UniProt Q950Y7 1-453)
chain: MTALFLHILWSISYIIINILYIFLSLLLSNNNEKIKQYNSNYFIKILLVLFYNKNLSFYKNLLSEDEISKIEFERLKNYPTLVLIHSNLNKLEKRNKIINSFINFKTKYRFYKFISTNFNLQTIIKNCNDKIIFSTLLYIVNLNYSFFYKTIKNTDLIVYLLANKFSILNDNIIVSKFNISKFNDYIKYINNTNSIDTYLENQIILGLNNNTNSNITKNINTKLLNSYSNLKNLVNITNNTFYLKKINDNYNTVINSEFLTYLKSNYKISFSASNIVKYLSDKSVNNSVILYLRKNKIFNKSRYSRNRQTYRTGAYWCLYVNIIAVVAFYFWFYKFTMNFGYLWWLLYSLILSFFFSRALKHRFYNPLNVMTEFKNGFMWFIIILINIFKPLLKLLENNYINLYNHLVIKYYQSFICNTLINKKKLEFNYILSSFKFIKELNNIIIISLNKLF
